# ± gives the standard deviation. Some of the results follow. Many entries were measured with a wide error.
# Test system: EfPiwi piRISC loaded with L1MC piRNA (26 nt)
# Test: pre-steady-state target cleavage rate (min^-1); guide: L1MC piRNA 5'p-UAACUAAAUACUAUGCAAGCUGUAGG; MIWI and MILI are mouse PIWI proteins and EfPiwi is from a freshwater sponge; tags in brackets are library labels; higher = faster piRNA-guided slicing of the target
# Settings: auxiliary factor: none (no Gtsf1)
# Procedure, shortened: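 At 33 °C in HEPES–potassium acetate buffer, a transcribed, DNA-blocked target RNA library […] was exposed for 0–8 or 0–960 min to 1 nM active affinity-purified piRISC carrying a single synthetic guide, with or without 500 nM GTSF1 partner protein. Uncleaved targets were sequenced and normalised to depth and to weakly complementary targets. With three trials pooled and k3 capped at 0.0001 min^-1, a burst-and-steady-state fit produced the pre-steady-state cleavage rate.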
row,Sequence,pre-steady-state target cleavage rate
1,UCCUGGAACAGCUUGCAUAGUAUUAUGUUA,0.000594 ± 0.014
2,UCCUGGAUGUGCUUGCAAUCUAUUUAGAAA,0.000799 ± 0.0097
3,UCCUGGAUGUCGAACGAUACUAUUUAGAUA,< 0.0001
